From PubChem BioAssay AID2685 (National Center for Advancing Translational Sciences (NCATS), 2010)
Hit rate of the full screen: of about 320,000 compounds, about 2,100 (0.66%) were called active. Inconclusive results, whose numbers are uncertain, are shown with a selection of clear calls. Calls come from the whole dose curve; as a rule, active = well fitted inhibition curve with a large enough effect in the signal ratio, with a control signal flat (not every such curve was filed as active); inconclusive = small, poorly fitted or top-dose-only effect, or effect the other way, or a change in a side signal; inactive = flat fitted curve, though single readings scatter; the % refers to the signal ratio. Potencies beside an inconclusive call are fits to weak or partial responses and may not hold up.

experiment: qHTS Assay for Lipid Storage Modulators in Drosophila S3 Cells; details: BODIPY lipid droplet fluorescence, 18-24 h, cells fed with added oleic acid; lipid storage change, negative = inhibition: at 46.1 µM (top of the series) unless noted
In short: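 Drosophila S3 cells loaded with oleic acid (400 uM, as added) and compounds at several concentrations; lipid droplets imaged by 488-nm laser-scanning cytometry, 500–530 nm intensity and object ratio to cell channel. Percent activity normalized to 20 uM Triacsin C.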
% is set by controls: 0 for no effect and ±100 for the full control effect; potency is the fitted concentration of half-maximal effect.

Structure (SMILES) | lipid storage change, negative = inhibition | Potency | outcome
Cc1nc(SCc2c(F)cccc2Cl)n[nH]1 | inconclusive: 23% | – | –
O=C(C1CCCCC1)N1CCC(n2nnc3ccccc32)CC1 | inconclusive: 8.92% | – | –
Cc1ccc(S(=O)(=O)NC2=NCN(Cc3ccccc3)CN2)cc1 | inconclusive: 15.6% | – | –
CC(=O)c1ccc(NC(=O)CSc2nc(C3CC3)nc3ccccc23)cc1 | – | inconclusive: 29.1 µM [falling, single point] | –
Cc1ccc(NS(=O)(=O)c2cc(NC(=O)c3ccc4c(c3)NC(=O)CS4)ccc2C)c(C)c1 | inconclusive: 79.5% | – | –
Cc1ccccc1C1=NC(c2ccc(F)cc2F)ON1 (configuration not stated) | – | inconclusive: 6.51 µM [activator, single point] | –
Cc1cc(C(C)(C)C)oc1C(=O)N1CCN(C(=O)c2oc(C(C)(C)C)cc2C)CC1 | inconclusive: -28.8% | – | –
COc1ccc(NC(=O)CN(C)C(=O)/C=C/c2cn(-c3ccccc3)nc2-c2ccc(F)cc2)cc1 | inconclusive | – | –
Cc1c(/C=C/C(=O)c2ccc(Cl)s2)cnn1C | – | inconclusive: 29.1 µM [falling, single point] | –
CCOc1ccc(N(C(C)C(=O)N/N=C(\C)C(C)(C)C)S(C)(=O)=O)cc1 (configuration not stated) | inconclusive: -8.76% | – | –
Cc1nn(-c2ccccc2)c(Cl)c1C(=O)NC1CCCCC1 | – | inconclusive: 23.1 µM [activator, single point] | –
COc1cc(/C=C/C(=O)OCC(=O)Nc2ccc(S(N)(=O)=O)cc2)ccc1O | inconclusive: 20.2% | – | –
O=C(OCCN1C(=O)c2ccccc2C1=O)c1cnccn1 | – | inconclusive: 2.31 µM [activator, partial curve] | –
CSc1ccc(Cl)c(C(=O)NNC(=O)c2csc(N3CCOCC3)n2)c1 | inconclusive: 64% [at 0.0737 µM] | – | –
O=S(=O)(c1ccc(Cl)cc1)N1CCCC(c2nc(-c3ccc(F)cc3)no2)C1 (configuration not stated) | – | inconclusive: 29.1 µM [falling, single point] | –
Cc1ccc(CNC(=O)C2CCC(=O)N2C(C)C)cc1 (configuration not stated) | – | inconclusive: 2.31 µM [activator, full curve, poor fit] | –
O=C(Nc1ccccc1N1CCOCC1)c1ccc2c(c1)OCO2 | inconclusive: -8.37% | – | –
CCc1ccc(OCC(=O)Oc2ccc([N+](=O)[O-])cc2)cc1 | – | inconclusive: 8.2 µM [activator, partial curve] | –
O=C(CCc1ccccc1)Nc1cccc(-c2nnc(-c3ccco3)o2)c1 | inconclusive: 61.3% | – | –
COCCNc1nc(N2CCCCC2)c2cnn(C)c2n1 | inconclusive: 32.3% | – | –
COCCN(C(=O)CCSc1ccc(F)cc1)c1c(N)n(Cc2ccccc2)c(=O)[nH]c1=O | inconclusive: 26.7% | – | –
O=C1C(Cl)=C(NCCCO)C(=O)c2ccccc21 | inconclusive: 112% | – | –
CC(OC(=O)c1ccccc1NCCO)C(=O)Nc1ccnn1C(C)C (configuration not stated) | – | inconclusive: 0.0164 µM [falling, full curve, poor fit] | –
Cc1ccc(CC2C(=O)N(c3nc(C)cc(C)n3)C(=O)C2C)cc1 (configuration not stated) | inconclusive: 4.47% | – | –
O=C(CCNc1n[nH]c(=O)[nH]c1=O)N/N=C/c1ccccc1Br | inconclusive: -10.4% | – | –
CCCn1nnnc1SCC(=O)NCc1ccccc1 | inconclusive: -2.8% | – | –

Structure (SMILES) | lipid storage change, negative = inhibition | Potency | outcome
CCn1c(SCc2nc3ccccc3[nH]2)nnc1-c1ccccc1OC | inconclusive: 14.2% | – | –
CC(=O)c1c(C)[nH]c(C(=O)COC(=O)c2ccc(Cl)nc2)c1C | inconclusive: 12.5% | – | –
C/C(=N/N=C(/C)c1cccs1)c1cccs1 | – | inconclusive: 16.4 µM [activator, partial curve] | –
O=C(COC(=O)c1ccc([N+](=O)[O-])o1)Nc1cccc2ccccc12 | inconclusive: 22.5% | – | –
Cc1cc(C)c(C)c(OCC(=O)N2CCN(c3ccccn3)CC2)c1 | inconclusive: -9% | – | –
CCC(C)(C)C1CCc2c(sc(NC(=O)c3cccs3)c2C(N)=O)C1 (configuration not stated) | inconclusive: 6.78% | – | –
COc1ccc(CCNC(=O)c2sc3ccccc3c2Cl)cc1OC | – | inconclusive: 29.1 µM [falling, single point] | –
CCOc1ccc(NS(=O)(=O)c2ccc(C(=O)N3CC(C)OC(C)C3)cc2)cc1 (configuration not stated) | – | active: 25.9 µM | –
COc1cc(/C=N/NC(=O)c2ccncc2)ccc1OC(=O)c1ccco1 | – | inconclusive: 29.1 µM [activator, single point] | –
COc1ccc(C2CC(O)(c3ccccc3)Oc3cc(OC)c(OC)c(OC)c32)cc1 (configuration not stated) | inconclusive: -36.6% | – | –
O=C(OCc1cccc(C(F)(F)F)c1)c1cc(S(=O)(=O)N2CCOCC2)ccc1F | inconclusive | – | –
O=C(c1ccc(S(=O)(=O)N2CCc3ccccc3C2)cc1)N1CCCCC1 | inconclusive: 4.55% | – | –
O=S(=O)(Nc1ccccc1N1CCOCC1)c1ccc(Cl)cc1 | – | inconclusive: 0.0046 µM [activator, full curve, poor fit] | –
COc1ccc(C2NC(=S)NC(C)=C2C(=O)Nc2ccccn2)cc1 (configuration not stated) | inconclusive: -12% | – | –
CC(=O)CN1C(=O)NC(c2ccccc2)(c2ccccc2)C1=O | inconclusive: 64.6% | – | –
CCOC(=O)N1CCN(c2ccc(C(F)(F)F)cn2)CC1 | – | inconclusive: 0.13 µM [falling, full curve, poor fit] | –
CC(C)CC(=O)Nc1ccc2oc(-c3cccnc3)nc2c1 | inconclusive: 30.8% | – | –
CC1(c2ccc(OC(F)F)cc2)NC(=O)N(CC(=O)Nc2ccc(F)cc2)C1=O (configuration not stated) | – | inconclusive: 0.651 µM [activator, partial curve, poor fit] | –
O=S(=O)(/N=C(/Nc1ccccn1)c1ccccc1)c1ccccc1 | inconclusive: 16.5% | – | –
COc1ccc(NC(=O)COC(=O)CC2CC3CCC2C3)c([N+](=O)[O-])c1 (configuration not stated) | inconclusive: 3.39% | – | –
CC(C)N1CCC(N2CCN(Cc3ccc(C#CC(C)(C)O)s3)CC2CCO)CC1 (configuration not stated) | inconclusive: -23.6% | – | –
Oc1ccccc1CN1CCN(C(O)(c2ccccc2)c2ccccc2)CC1 | inconclusive: 10.7% | – | –
Cc1cc(C)c2c(N)c(S(=O)(=O)Cc3ccccc3)sc2n1 | – | inconclusive: 2.06 µM [activator, partial curve] | –
Cn1cc(C(=O)c2cccc(Cl)c2)cc1/C=N\O | inconclusive: -4.04% | – | –
COc1ccc(C)c(Cn2c(-c3nonc3N)nc3ccccc32)c1 | – | inconclusive: 4.11 µM [activator, partial curve] | –
O=C(CCCN1C(=O)/C(=C/c2ccccc2Cl)SC1=S)NNC(=O)c1ccc(Cl)cc1 | inconclusive: -0.118% | – | –

Structure (SMILES) | lipid storage change, negative = inhibition | Potency | outcome
CCOC(=O)CSC1=C(C#N)C(c2ccc(C)cc2)C2=C(CCCC2=O)N1 (configuration not stated) | – | inconclusive: 2.06 µM [activator, full curve] | –
Cn1c(SCc2cccnc2)nc2c(c1=O)SCC2 | inconclusive: -35.6% | – | –
COc1ccc(N(C(=O)c2ccc(F)cc2)C2=CC3CCC(C2)N3C)cc1 (configuration not stated) | inconclusive: 0.143% | – | –
CCOc1ccc(C(=O)NNC(=O)CCNC(=O)c2ccco2)cc1OC | inconclusive | – | –
COCCCNCCOc1ccccc1-c1ccccc1 | – | inconclusive: 0.92 µM [falling, full curve, poor fit] | –
CN(C)c1cccc(C(=O)OCC(=O)c2ccc[nH]2)c1 | inconclusive | – | –
CCCCC[C@H]1CN(CCCC)C(=O)[C@@H]1CC(=O)NCc1ccc(OC)cc1 | inconclusive: -41.3% | – | –
COc1ccc(CCNC(=O)CCCNC(=O)Cn2cnc3sc(C)c(C)c3c2=O)cc1OC | – | inconclusive: 0.651 µM [falling, full curve] | –
CC(=O)Nc1ccc(NC(=O)C(C)OC(=O)c2c(C)nn(-c3ccccc3)c2Cl)cc1 (configuration not stated) | inconclusive: -35.4% | – | –
CCC/C(=N\NC(=O)Cc1csc(N2CCOCC2)n1)c1ccccc1 | inconclusive: 23.6% | – | –
Cc1cc(C)n(C(=O)c2cccc([N+](=O)[O-])c2C)n1 | inconclusive: 14% | – | –
O=C(NCc1cccc(Cl)c1)C1CCN(c2nnc(N3CCCC3=O)s2)CC1 | – | inconclusive: 0.731 µM [activator, single point] | –
COC(=O)c1ccc(OCC(O)CNC2CCCC2)cc1 (configuration not stated) | inconclusive: 11.4% | – | –
COc1ccc(-c2nc(CN3CCC(C(=O)N4CCOCC4)CC3)c(C)o2)c(OC)c1 | inconclusive: -100% | – | –
COc1ccc(N(C)S(=O)(=O)c2cccc(C(=O)Nc3ccc(N4CCOCC4)cc3)c2)cc1 | inconclusive: -0.839% | – | –
CCCCCn1c(=O)[nH]c2cc(C(=O)N3CCN(CC)CC3)ccc2c1=O | – | – | inactive [at 46.1 µM]
CCCN(CC(=O)Nc1ccc(Cl)cc1Cl)C(=O)/C=C/c1cccc([N+](=O)[O-])c1 | – | inconclusive: 10.3 µM [activator, partial curve] | –
Oc1ccc(N=Nc2ccc(Br)cc2)c(O)c1 | inconclusive: -30.7% [cytotoxic] | – | –
O=C(O)c1ccccc1C(=O)N1CCc2c([nH]c3ccccc23)C1C(F)(F)F (configuration not stated) | inconclusive: -20.8% | – | –
CCOC(=O)c1c(NC(C)=O)sc2c1CCN(Cc1ccccc1)C2 | inconclusive: -62% | – | –
O=S(=O)(c1ccc(Br)cc1)c1nc(-c2ccccc2)oc1NCCN1CCOCC1 | inactive: 0.674% | – | –
CN(CC(=O)Nc1ccc(Cl)cc1F)C1CCS(=O)(=O)C1 (configuration not stated) | inconclusive: 2.07% | – | –
Cn1nc(C(=O)N2CCN(c3ccc(Cl)cc3)CC2)c2c1-c1ccccc1S(=O)(=O)C2 | inconclusive: -8.86% | – | –
CCC(CC)C(=O)Oc1c(Sc2ccccc2[N+](=O)[O-])c(C)nn1C(C)(C)C | – | inconclusive: 29.1 µM [falling, single point] | –
CS(=O)(=O)NCCCNc1ccc(Cl)cc1[N+](=O)[O-] | inconclusive: 0.325% | – | –

Structural class, those above with a tert-butyl group
Structure (SMILES) | lipid storage change, negative = inhibition | Potency | outcome
Cc1cc(C(C)(C)C)oc1C(=O)N1CCN(C(=O)c2oc(C(C)(C)C)cc2C)CC1 | inconclusive: -28.8% | – | –
CCOc1ccc(N(C(C)C(=O)N/N=C(\C)C(C)(C)C)S(C)(=O)=O)cc1 (configuration not stated) | inconclusive: -8.76% | – | –
CCC(CC)C(=O)Oc1c(Sc2ccccc2[N+](=O)[O-])c(C)nn1C(C)(C)C | – | inconclusive: 29.1 µM [falling, single point] | –
